At least one structure is not confirmed: it was looked up by name or label, or the drawing left a doubt.
Test system: antibiotic resistant Staphylococcus aureus (MRSA L2-15 ST 13DSMZ46320)
Experiment: In vivo animal study #1: survival of infected Sprague Dawley rats
Details: 10 per group, i.p. MRSA infection, Rifampicin alone 10 mg/kg/day p.o. for 10 days

CO[C@H]1/C=C/O[C@@]2(C)Oc3c(C)c(O)c4c(O)c(c(/C=N/N5CCN(C)CC5)c(O)c4c3C2=O)NC(=O)/C(C)=C\C=C\[C@H](C)[C@H](O)[C@@H](C)[C@@H](O)[C@@H](C)[C@H](OC(C)=O)[C@@H]1C [Rifampicin]
survival after 10 days: two of the ten animals survived
